These are yes or no findings as the source states them, for the method shown. Binding seen in cells or lysates may run through a third protein. These calls come from enrichment with a bait or labelling near it, and not all partners need be listed.
Assays:
[1] = target: DENV NS4A (AP-MS, DENV-infected Huh7) (dengue virus serotype 2 (EDEN2)); experiment: affinity purification with mass spectrometry
[2] = target: DENV NS3 (AP-MS, DENV-infected Huh7) (dengue virus serotype 2 (EDEN2)); experiment: affinity purification with mass spectrometry

B1: RPN1 (endogenous, Huh7) (protein, UniProt P04843 24-607)
chain: ASSEAPPLINEDVKRTVDLSSHLAKVTAEVVLAHLGGGSTSRATSFLLALEPELEARLAHLGVQVKGEDEEENNLEVRETKIKGKSGRFFTVKLPVALDPGAKISVIVETVYTHVLHPYPTQITQSEKQFVVFEGNHYFYSPYPTKTQTMRVKLASRNVESYTKLGNPTRSEDLLDYGPFRDVPAYSQDTFKVHYENNSPFLTITSMTRVIEVSHWGNIAVEENVDLKHTGAVLKGPFSRYDYQRQPDSGISSIRSFKTILPAAAQDVYYRDEIGNVSTSHLLILDDSVEMEIRPRFPLFGGWKTHYIVGYNLPSYEYLYNLGDQYALKMRFVDHVFDEQVIDSLTVKIILPEGAKNIEIDSPYEISRAPDELHYTYLDTFGRPVIVAYKKNLVEQHIQDIVVHYTFNKVLMLQEPLLVVAAFYILFFTVIIYVRLDFSITKDPAAEARMKVACITEQVLTLVNKRIGLYRHFDETVNRYKQSRDISTLNSGKKSLETEHKALTSEIALLQSRLKTEGSDLCDRVSEMQKLDAQVKELVLKSAVEAERLVAGKLKKDTYIENEKLISGKRQELVTKIDHILDAL
B1 was tested, and the binding [1] was “binds”.

B2: CPSF3 (endogenous, Huh7) (protein, UniProt Q9UKF6 1-684)
chain: MSAIPAEESDQLLIRPLGAGQEVGRSCIILEFKGRKIMLDCGIHPGLEGMDALPYIDLIDPAEIDLLLISHFHLDHCGALPWFLQKTSFKGRTFMTHATKAIYRWLLSDYVKVSNISADDMLYTETDLEESMDKIETINFHEVKEVAGIKFWCYHAGHVLGAAMFMIEIAGVKLLYTGDFSRQEDRHLMAAEIPNIKPDILIIESTYGTHIHEKREEREARFCNTVHDIVNRGGRGLIPVFALGRAQELLLILDEYWQNHPELHDIPIYYASSLAKKCMAVYQTYVNAMNDKIRKQININNPFVFKHISNLKSMDHFDDIGPSVVMASPGMMQSGLSRELFESWCTDKRNGVIIAGYCVEGTLAKHIMSEPEEITTMSGQKLPLKMSVDYISFSAHTDYQQTSEFIRALKPPHVILVHGEQNEMARLKAALIREYEDNDEVHIEVHNPRNTEAVTLNFRGEKLAKVMGFLADKKPEQGQRVSGILVKRNFNYHILSPCDLSNYTDLAMSTVKQTQAIPYTGPFNLLCYQLQKLTGDVEELEIQEKPALKVFKNITVIQEPGMVVLEWLANPSNDMYADTVTTVILEVQSNPKIRKGAVQKVSKKLEMHVYSKRLEIMLQDIFGEDCVSVKDDSILSVTVDGKTANLNLETRTVECEEGSEDDESLREMVELAAQRLYEALTPVH
In the case of B2, the binding [2] is reported as “binds”.

B3: DDOST (endogenous, Huh7) (protein, UniProt P39656 43-456)
chain: SGPRTLVLLDNLNVRETHSLFFRSLKDRGFELTFKTADDPSLSLIKYGEFLYDNLIIFSPSVEDFGGNINVETISAFIDGGGSVLVAASSDIGDPLRELGSECGIEFDEEKTAVIDHHNYDISDLGQHTLIVADTENLLKAPTIVGKSSLNPILFRGVGMVADPDNPLVLDILTGSSTSYSFFPDKPITQYPHAVGKNTLLIAGLQARNNARVIFSGSLDFFSDSFFNSAVQKAAPGSQRYSQTGNYELAVALSRWVFKEEGVLRVGPVSHHRVGETAPPNAYTVTDLVEYSIVIQQLSNGKWVPFDGDDIQLEFVRIDPFVRTFLKKKGGKYSVQFKLPDVYGVFQFKVDYNRLGYTHLYSSTQVSVRPLQHTQYERFIPSAYPYYASAFSMMLGLFIFSIVFLHMKEKEKSD
With B3 the binding [1] was “binds”.

B4: STT3A (endogenous, Huh7) (protein, UniProt P46977 1-705)
chain: MTKFGFLRLSYEKQDTLLKLLILSMAAVLSFSTRLFAVLRFESVIHEFDPYFNYRTTRFLAEEGFYKFHNWFDDRAWYPLGRIIGGTIYPGLMITSAAIYHVLHFFHITIDIRNVCVFLAPLFSSFTTIVTYHLTKELKDAGAGLLAAAMIAVVPGYISRSVAGSYDNEGIAIFCMLLTYYMWIKAVKTGSICWAAKCALAYFYMVSSWGGYVFLINLIPLHVLVLMLTGRFSHRIYVAYCTVYCLGTILSMQISFVGFQPVLSSEHMAAFGVFGLCQIHAFVDYLRSKLNPQQFEVLFRSVISLVGFVLLTVGALLMLTGKISPWTGRFYSLLDPSYAKNNIPIIASVSEHQPTTWSSYYFDLQLLVFMFPVGLYYCFSNLSDARIFIIMYGVTSMYFSAVMVRLMLVLAPVMCILSGIGVSQVLSTYMKNLDISRPDKKSKKQQDSTYPIKNEVASGMILVMAFFLITYTFHSTWVTSEAYSSPSIVLSARGGDGSRIIFDDFREAYYWLRHNTPEDAKVMSWWDYGYQITAMANRTILVDNNTWNNTHISRVGQAMASTEEKAYEIMRELDVSYVLVIFGGLTGYSSDDINKFLWMVRIGGSTDTGKHIKENDYYTPTGEFRVDREGSPVLLNCLMYKMCYYRFGQVYTEAKRPPGFDRVRNAEIGNKDFELDVLEEAYTTEHWLVRIYKVKDLDNRGLSRT
In the case of B4, the binding [1] is reported as “binds”.

Source: article doi:10.1101/2025.06.20.659860
